Amino acid sequences for entries named in this document (tags omitted).
UniProt Q9UKV8, whole entry: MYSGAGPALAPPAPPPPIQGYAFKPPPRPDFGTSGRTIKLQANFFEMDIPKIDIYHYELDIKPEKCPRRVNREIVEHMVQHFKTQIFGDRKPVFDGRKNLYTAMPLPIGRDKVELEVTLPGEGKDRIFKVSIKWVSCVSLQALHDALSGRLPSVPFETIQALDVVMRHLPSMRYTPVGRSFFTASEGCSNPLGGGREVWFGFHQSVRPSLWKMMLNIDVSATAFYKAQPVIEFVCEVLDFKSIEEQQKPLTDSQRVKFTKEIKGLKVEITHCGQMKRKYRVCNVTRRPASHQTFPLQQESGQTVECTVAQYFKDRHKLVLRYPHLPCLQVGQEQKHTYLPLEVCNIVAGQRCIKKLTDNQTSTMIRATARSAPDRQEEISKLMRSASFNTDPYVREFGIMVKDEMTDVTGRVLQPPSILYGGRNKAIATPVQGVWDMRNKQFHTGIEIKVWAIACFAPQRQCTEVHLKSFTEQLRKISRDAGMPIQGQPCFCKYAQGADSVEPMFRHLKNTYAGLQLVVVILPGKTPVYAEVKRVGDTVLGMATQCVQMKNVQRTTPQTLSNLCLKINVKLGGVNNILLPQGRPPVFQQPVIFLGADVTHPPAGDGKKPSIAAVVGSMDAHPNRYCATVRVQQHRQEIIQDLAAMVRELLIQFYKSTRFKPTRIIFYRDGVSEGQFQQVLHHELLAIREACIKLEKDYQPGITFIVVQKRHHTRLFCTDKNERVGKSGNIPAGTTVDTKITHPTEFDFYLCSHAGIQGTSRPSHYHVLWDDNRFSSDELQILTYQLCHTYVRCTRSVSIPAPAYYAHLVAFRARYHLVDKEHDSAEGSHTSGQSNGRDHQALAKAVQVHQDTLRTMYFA

According to publication PMC12424427:

Molecular target: AGO2 (UniProt Q9UKV8)
Assay: competition (MST)
Details: competitor vs 3p-hpRNA: 1x partly reduces, 10x completely disrupts; 5'-phosphate; 3' dTdT (last two nt are DNA); commercial protein; protein details: fluorescent RED-NHS label when target

GCAUGCGACCUCUGUUUGATT [siRNA]: binds.

For at least one entry, the source does not settle the construct or the ends of the probe.
